The record followed here is paper PMC4275590.

Amino acid sequences for entries named in this document (tags omitted). Residues count along the entry.
UniProt P10909, residues 23-449: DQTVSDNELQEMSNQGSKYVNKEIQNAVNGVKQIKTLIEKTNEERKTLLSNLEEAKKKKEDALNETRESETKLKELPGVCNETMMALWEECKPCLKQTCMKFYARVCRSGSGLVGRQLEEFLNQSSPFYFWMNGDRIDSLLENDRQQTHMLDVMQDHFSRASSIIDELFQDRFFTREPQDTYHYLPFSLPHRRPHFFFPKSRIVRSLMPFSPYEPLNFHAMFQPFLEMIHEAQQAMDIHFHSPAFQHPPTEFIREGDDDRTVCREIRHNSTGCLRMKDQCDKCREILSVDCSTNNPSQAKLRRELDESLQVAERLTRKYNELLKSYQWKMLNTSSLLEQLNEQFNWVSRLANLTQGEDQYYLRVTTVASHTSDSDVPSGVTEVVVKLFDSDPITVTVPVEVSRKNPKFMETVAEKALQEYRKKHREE
UniProt Q9NT62: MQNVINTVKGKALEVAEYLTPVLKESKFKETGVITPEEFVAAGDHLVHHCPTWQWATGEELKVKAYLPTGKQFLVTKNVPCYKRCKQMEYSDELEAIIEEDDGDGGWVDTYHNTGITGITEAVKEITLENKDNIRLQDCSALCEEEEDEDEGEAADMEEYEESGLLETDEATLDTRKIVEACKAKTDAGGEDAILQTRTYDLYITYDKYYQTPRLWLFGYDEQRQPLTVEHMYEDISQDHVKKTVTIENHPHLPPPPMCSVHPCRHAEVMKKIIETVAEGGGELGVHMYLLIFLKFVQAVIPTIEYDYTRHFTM

Results are given in words; binding and its absence hold for the method and conditions named. Binding seen in cells or lysates may run through a third protein. Some entries that bind do so weakly or less than the wild type.

The target in test [1] is Clusterin (CLU), expressed from a CLU plasmid (UniProt P10909). Put plainly: co-IP; LNCaP cells transfected with CLU, Atg3 and LC3 plasmids, treated with 10 uM MG132+CQ; NP40 lysis buffer, 800 ug protein, 4 ug Atg3 antibody or CLU antibody overnight at 4 C, protein-A/G sepharose; western blot. Background: Immunoblotting shows a protein as a band on a membrane.
Test [2] addresses Atg3, expressed from an Atg3 plasmid (UniProt Q9NT62). Described as above.

With “Atg3, expressed from an Atg3 plasmid (from UniProt Q9NT62 1-314) (enzyme)”, the binding entry in test [1] is given as “binds”.

Regarding “Clusterin (CLU), expressed from a CLU plasmid (from UniProt P10909 23-449)”, in test [2], the binding entry is on record as “binds”.
